Results deposited as PubChem BioAssay AID1259254 (NCATS, 2017).
Aim: 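Genome-wide screen for genes that prevent DNA re-replication in cancer cells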 (primary screen). Cell system: human HCT116 colorectal cancer cells. Knock-down reagent: single siRNA against human genes. Duration: 3 days. Detection: 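Imaged Hoechst DNA stain sorts each cell into a cycle phase by DNA amount; per plate, G2 fraction set to 0% for non-targeting and 100% for GMNN siRNA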. Reading the numbers: G2 robust z-score and G2 cells, % of GMNN control: higher = more G2 cells, more excess DNA replication. Active means: 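An siRNA counts as active if its G2 robust z-score lies at least 5 MADs above the screen median; here such calls match roughly 38% of GMNN control or more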.
The deposit covers about 59,000 reagents; shown is a part drawn at random. About 1,550 of all reagents (2.6%) were called active. 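G2 share is only a proxy for re-replication; each gene was hit by three separate siRNAs, and active genes were retested.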 Unmarked entries are inactive. The numbers tell different reagents against one gene apart. Not all columns of the deposit are shown. The record does not give: the amount of reagent.

MYT1L (GeneID 23040) #1 showed G2 robust z-score -1.22; G2 cells, % of GMNN control -5.62. For MYT1L (GeneID 23040) #2 the deposit lists G2 robust z-score -0.705; G2 cells, % of GMNN control -1.99. After knock-down of MYT1L (GeneID 23040) #3, the screen gave G2 robust z-score 1.37; G2 cells, % of GMNN control 12.6. Knock-down of MAEL (GeneID 84944) #1 resulted in: G2 robust z-score -0.0847; G2 cells, % of GMNN control 2.37. For MAEL (GeneID 84944) #2, the entry reads G2 robust z-score 0.237; G2 cells, % of GMNN control 4.63. Depletion of MAEL (GeneID 84944) #3 came out at: G2 robust z-score -0.126; G2 cells, % of GMNN control 2.08.

ICMT (GeneID 23463) #1 showed G2 robust z-score 1.3; G2 cells, % of GMNN control 12.1. Depletion of ICMT (GeneID 23463) #2 gave: G2 robust z-score 2.33; G2 cells, % of GMNN control 19.4. With knock-down of ICMT (GeneID 23463) #3 the results were G2 robust z-score 0.51; G2 cells, % of GMNN control 6.56. DPF1 (GeneID 8193) #1 gave G2 robust z-score -0.405; G2 cells, % of GMNN control 0.116. DPF1 (GeneID 8193) #2 showed G2 robust z-score -0.0466; G2 cells, % of GMNN control 2.64. After knock-down of DPF1 (GeneID 8193) #3, the screen gave G2 robust z-score -0.885; G2 cells, % of GMNN control -3.26.

Part of the list above, set out differently:
gene | reagent no. | G2 robust z-score | G2 cells, % of GMNN control
ICMT (GeneID 23463) | 3 | 0.51 | 6.56
DPF1 (GeneID 8193) | 1 | -0.405 | 0.116
